# The other results are listed elsewhere or left out. The main result of the screen is listed elsewhere. These columns were measured beside it and carry no call. Compounds called inactive in the main read-out are mostly missing here. Words in brackets tell the shape of the fitted curve; partial curves, single points and poor fits give uncertain potencies.
# Test: IkB Signaling
# Settings: ABC-DLBCL IkBa-CBG/CBR dual luciferase ratio (green luciferase fused to IkBa over red control in OCI-Ly3 lymphoma cells), 4 h; measured here: control luc red channel unless noted
# In short: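 Curves were fitted separately to fusion (green), unfused (red) and ratio luminescence, then classed by r2, magnitude and activity. Cells: OCI-Ly3, 4 h compound plus doxycycline at 37C; 10 uM MG-132 defined full response.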
row,Compound,AC50
1,FC(F)(F)c1ccc(N2CCN(c3cc(-c4ccccc4)nc4ncnn34)CC2)nc1,"10 µM [falling, partial curve]"
2,COc1ccc(S(=O)(=O)N2CCN(c3ccccc3OC)CC2)cc1,"3.16 µM [falling, partial curve, poor fit]"
3,Cc1ccc(-c2nc(C)c(CCNC(=O)c3ccccc3Br)s2)cc1,"31.6 µM [falling, partial curve, poor fit]"
4,COCCNC(=O)c1ccccc1NC(=O)c1nsc2ccccc12,"6.31 µM [rising, single point]"
5,Cc1ccc(-n2cnnn2)cc1S(N)(=O)=O,"7.94 µM [rising, single point]"
6,COc1nc(-c2ccccc2)cc(-c2ccc(OC)c(OC)c2)n1,"5.01 µM [falling, full curve]"
7,COc1ccc2[nH]cc(CCN=C(NC(=O)c3ccccc3OC)Nc3nc(C)cc(C)n3)c2c1,"7.94 µM [falling, partial curve]"
8,COC(=O)Cn1c(SCCOc2ccccc2OC)nc2ccccc21,"2 µM [rising, partial curve]"
9,Cc1ccc(NC(=O)c2ccc(NC(=O)CCS(=O)(=O)c3cccs3)cc2)cc1F,"3.16 µM [falling, full curve]"
10,COc1cccc(Cn2cc(C(=O)c3ccc(Cl)cc3)c(=O)c3ccccc32)c1,"39.8 µM [falling, single point]"
11,Clc1ccc(OCc2nc(-c3ccncc3)no2)c(Br)c1,"31.6 µM [falling, single point]"
12,Cc1nc2cccnc2n1C1CCN(C(=O)Nc2ccc(Cl)cc2)CC1,"1.58 µM [rising, full curve, poor fit]"
13,CCc1c(C)sc2c1CCN(Cc1ccccc1F)C2c1ccccc1 (stereo unspecified),"31.6 µM [falling, single point]"
14,CCOc1ccc(-c2c(C)nn3c(C)c(C(=O)NCCc4ccc(C)cc4)cnc23)cc1OCC,"31.6 µM [falling, partial curve]"
15,O=C(NCCSc1c[nH]c2ccccc12)c1ccccc1Cl,"7.94 µM [falling, partial curve]"
16,CCN1CCN(Cc2c(O)ccc3oc(C)c(C(=O)Nc4cccc(C(F)(F)F)c4)c23)CC1,"15.8 µM [falling, partial curve]"
17,COc1cccc(NC(=O)c2c(C)oc3nc(C)nc(N4CCCC4)c23)c1,"25.1 µM [falling, partial curve, poor fit]"
18,O=C(NCc1ccccc1)c1noc2c1CCCCC2,"15.8 µM [falling, partial curve]"
19,CCOC(=O)c1cccc(NC(=O)CCS(=O)(=O)c2ccc3c(c2)CCN3C(=O)CC)c1,"15.8 µM [falling, partial curve, poor fit]"
20,O=C(c1ccc(Cl)cc1)n1nc(-c2cccnc2)nc1NCc1ccc(F)cc1,"12.6 µM [falling, partial curve]"
21,COc1cccc2cc(-c3nc(-c4ccc(Cl)cc4)cs3)c(=O)oc12,"0.00631 µM [rising, full curve, poor fit]"

row,Compound,AC50
1,COC(=O)C[C@](O)(CCCC(C)(C)O)C(=O)O[C@@H]1C(OC)=C[C@]23CCCN2CCc2cc4c(cc2[C@H]13)OCO4,"0.00501 µM [falling, full curve]"
2,CC(=O)c1cccc(NC(=O)c2ccc3nc(Cc4ccccc4)oc3c2)c1,"15.8 µM [falling, partial curve]"
3,CCCCOc1ccc(C(=O)N(Cc2ccccc2)C2CCS(=O)(=O)C2)cc1 (stereo unspecified),"10 µM [falling, partial curve]"
4,c1ccc(CN2CCN(c3nc(-c4ccccc4)nc(-n4ccnc4)n3)CC2)cc1,"20 µM [falling, partial curve]"
5,CCOc1ccc(-c2nnc(SCC(=O)Nc3cccc(C#N)c3)o2)cc1,"10 µM [falling, partial curve]"
6,CC(C)c1ccc(NC(=O)C(c2ccccc2)N2CCN(C(=O)c3ccco3)CC2)cc1 (stereo unspecified),"20 µM [falling, partial curve]"
7,Cc1cc(C)c2c(c1)c(C)cc1nnc(SCC(=O)c3ccccc3)n12,"6.31 µM [falling, partial curve]"
8,O=C(Cc1c[nH]c2ccccc12)NCc1ccc2c(c1)OCO2,"25.1 µM [falling, partial curve]"
9,O=C(CN1C(=O)c2ccccc2Sc2ccc(C(=O)N3CCOCC3)cc21)Nc1ccc(Cl)cc1F,"10 µM [falling, partial curve]"
10,Cc1ccc2onc(CC(=O)N3CCN(c4cccc(Cl)c4)CC3)c2c1,"25.1 µM [falling, partial curve, poor fit]"
11,CCCCSc1nc2sc3c(c2c(=O)n1-c1ccccc1C)CC(C)(C)OC3,"12.6 µM [falling, partial curve]"
12,CCOc1ccc(-n2cc(-c3ccccc3)c3c(Nc4cccc(F)c4)ncnc32)cc1,"39.8 µM [falling, single point]"
13,Cc1ccc(NC(=O)c2cnc(N3CCCC3)nc2C)cc1F,"31.6 µM [falling, partial curve]"
14,CCN(Cc1ccccc1)S(=O)(=O)c1cc(Br)cc2c1N(C(=O)C1CC1)CC2,"20 µM [falling, partial curve]"
15,Cc1ccc(O)c(NC(=O)C2=CC(c3ccco3)=NS(=O)(=O)N2C)c1,"20 µM [falling, single point]"
16,O=C(CSc1ncccc1C(=O)Oc1ccccc1Cl)Nc1ccc(C(F)(F)F)cc1Cl,"0.0794 µM [rising, full curve]"
17,Cc1ccc(CN(C(=O)COc2ccccc2[N+](=O)[O-])c2ccccn2)o1,"25.1 µM [falling, single point]"
18,COc1ccc(NC(=O)C2CCCN(S(=O)(=O)c3ccc(F)cc3)C2)cc1 (stereo unspecified),"10 µM [falling, partial curve]"
19,CCN(CC)S(=O)(=O)c1ccc2c(c1)N(CC(=O)Nc1cccc(C#N)c1)C(=O)CO2,"39.8 µM [falling, single point]"
20,O=C(c1cnc(N2CCN(c3ncccn3)CC2)c2ccccc12)N1CCN(c2ncccn2)CC1,"10 µM [falling, partial curve]"

# Reference: PubChem BioAssay AID445 (National Center for Advancing Translational Sciences (NCATS), 2006)
